Test results reported in the supplement of paper PMC8728848.
Some of the results follow.

Columns and labels:
Assay in all cases: glycan array binding signal (z-score within array); higher = stronger binding
Details in all cases: glycan notation: IUPAC condensed, linker removed
Fuc(a1-2)Gal = molecular target: Fuc(a1-2)Gal
How it was run: (§1)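 The binding signal is a Z-score computed within each array and averaged over linkers. Arrays of the same protein sequence at different concentrations or buffers were also averaged together. Data originate from 3228 arrays in the Consortium for Functional Glycomics database, kept only where the protein sequence was available.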

Fuc(a1-2)Gal(b1-3)GalNAc = molecular target: Fuc(a1-2)Gal(b1-3)GalNAc
How it was run: as §1

[1] = molecular target: Fuc(a1-2)Gal(b1-3)GalNAc(b1-3)Gal
How it was run: as §1

[2] = molecular target: Fuc(a1-2)Gal(b1-3)GalNAc(b1-3)Gal(a1-4)Gal(b1-4)Glc
How it was run: as §1

[3] = molecular target: Fuc(a1-2)Gal(b1-3)GalNAc(b1-4)[Neu5Ac(a2-3)]Gal(b1-4)Glc
How it was run: as §1

Fuc(a1-2)Gal(b1-3)GlcNAc = molecular target: Fuc(a1-2)Gal(b1-3)GlcNAc
How it was run: as §1

[4] = molecular target: Fuc(a1-2)Gal(b1-3)GlcNAc(b1-2)Man(a1-3)[Fuc(a1-2)Gal(b1-3)GlcNAc(b1-2)Man(a1-6)]Man(b1-4)GlcNAc(b1-4)GlcNAc
How it was run: as §1

[5] = molecular target: Fuc(a1-2)Gal(b1-3)GlcNAc(b1-3)Gal(b1-4)Glc
How it was run: as §1

[6] = molecular target: Fuc(a1-2)Gal(b1-3)GlcNAc(b1-3)[Gal(b1-4)[Fuc(a1-3)]GlcNAc(b1-6)]Gal(b1-4)Glc
How it was run: as §1

[7] = molecular target: Fuc(a1-2)Gal(b1-3)[Fuc(a1-4)]GlcNAc
How it was run: as §1

[8] = molecular target: Fuc(a1-2)Gal(b1-3)[Fuc(a1-4)]GlcNAc(b1-2)Man(a1-3)[Fuc(a1-2)Gal(b1-3)[Fuc(a1-4)]GlcNAc(b1-2)Man(a1-6)]Man(b1-4)GlcNAc(b1-4)GlcNAc
How it was run: as §1

Fuc(a1-2)Gal(b1-4)Glc = molecular target: Fuc(a1-2)Gal(b1-4)Glc
How it was run: as §1

Fuc(a1-2)Gal(b1-4)Glc6S = molecular target: Fuc(a1-2)Gal(b1-4)Glc6S
How it was run: as §1

Fuc(a1-2)Gal(b1-4)GlcNAc = molecular target: Fuc(a1-2)Gal(b1-4)GlcNAc
How it was run: as §1

[9] = molecular target: Fuc(a1-2)Gal(b1-4)GlcNAc(b1-2)Man(a1-3)[Fuc(a1-2)Gal(b1-4)GlcNAc(b1-2)Man(a1-6)]Man(b1-4)GlcNAc(b1-4)GlcNAc
How it was run: as §1

[10] = molecular target: Fuc(a1-2)Gal(b1-4)GlcNAc(b1-3)Gal(b1-4)GlcNAc
How it was run: as §1

[11] = molecular target: Fuc(a1-2)Gal(b1-4)GlcNAc(b1-3)Gal(b1-4)GlcNAc(b1-3)Gal(b1-4)GlcNAc
How it was run: as §1

[12] = molecular target: Fuc(a1-2)Gal(b1-4)GlcNAc6S
How it was run: as §1

[13] = molecular target: Fuc(a1-2)Gal(b1-4)[Fuc(a1-3)]GlcNAc
How it was run: as §1

[14] = molecular target: Fuc(a1-2)Gal(b1-4)[Fuc(a1-3)]GlcNAc(b1-2)Man(a1-3)[Fuc(a1-2)Gal(b1-4)[Fuc(a1-3)]GlcNAc(b1-2)Man(a1-6)]Man(b1-4)GlcNAc(b1-4)GlcNAc
How it was run: as §1

[15] = molecular target: Fuc(a1-2)Gal(b1-4)[Fuc(a1-3)]GlcNAc(b1-3)Gal(b1-4)[Fuc(a1-3)]GlcNAc
How it was run: as §1

[16] = molecular target: Fuc(a1-2)Gal(b1-4)[Fuc(a1-3)]GlcNAc(b1-3)Gal(b1-4)[Fuc(a1-3)]GlcNAc(b1-3)Gal(b1-4)[Fuc(a1-3)]GlcNAc
How it was run: as §1

Fuc(a1-2)Gal6S(b1-4)Glc = molecular target: Fuc(a1-2)Gal6S(b1-4)Glc
How it was run: as §1

[17] = molecular target: Fuc(a1-2)Gal6S(b1-4)Glc6S
How it was run: as §1

[18] = molecular target: Fuc(a1-2)Gal6S(b1-4)GlcNAc
How it was run: as §1

Fuc(a1-2)[Gal(a1-3)]Gal = molecular target: Fuc(a1-2)[Gal(a1-3)]Gal
How it was run: as §1

[19] = molecular target: Fuc(a1-2)[Gal(a1-3)]Gal(b1-3)GlcNAc
How it was run: as §1

[20] = molecular target: Fuc(a1-2)[Gal(a1-3)]Gal(b1-3)GlcNAc(b1-2)Man(a1-3)[Fuc(a1-2)[Gal(a1-3)]Gal(b1-3)GlcNAc(b1-2)Man(a1-6)]Man(b1-4)GlcNAc(b1-4)GlcNAc
How it was run: as §1

[21] = molecular target: Fuc(a1-2)[Gal(a1-3)]Gal(b1-4)Glc
How it was run: as §1

[22] = molecular target: Fuc(a1-2)[Gal(a1-3)]Gal(b1-4)GlcNAc
How it was run: as §1

B1: CTLX (Homo sapiens), Q6UXS0 (protein)
chain: SLCPLFWMEFKGHCYRFFPLNKTWAEADLYCSEFSVGRKSAKLASIHSWEENVFVYDLVNSCVPGIPADVWTGLHDHRQEGQFEWTDGSSYDYSYWDGSQPDDGVHADPEEEDCVQIWYRPTSALRSWNDNTCSRKFPFVCKIPSLTIH
glycan array binding signal (z-score) (Fuc(a1-2)Gal): -0.994 | glycan array binding signal (z-score) (Fuc(a1-2)Gal(b1-3)GalNAc): 1.99 | glycan array binding signal (z-score) [1]: 0.292 | glycan array binding signal (z-score) [2]: -0.375 | glycan array binding signal (z-score) [3]: 0.814 | glycan array binding signal (z-score) (Fuc(a1-2)Gal(b1-3)GlcNAc): -0.528 | glycan array binding signal (z-score) [4]: 1.62 | glycan array binding signal (z-score) [5]: -0.331 | glycan array binding signal (z-score) [6]: 0.273 | glycan array binding signal (z-score) [7]: -0.189 | glycan array binding signal (z-score) [8]: 1.46 | glycan array binding signal (z-score) (Fuc(a1-2)Gal(b1-4)Glc): 0.198 | glycan array binding signal (z-score) (Fuc(a1-2)Gal(b1-4)Glc6S): -0.666 | glycan array binding signal (z-score) (Fuc(a1-2)Gal(b1-4)GlcNAc): 0.14 | glycan array binding signal (z-score) [9]: -0.221 | glycan array binding signal (z-score) [10]: 0.681 | glycan array binding signal (z-score) [11]: 1.56 | glycan array binding signal (z-score) [12]: -0.548 | glycan array binding signal (z-score) [13]: -0.691 | glycan array binding signal (z-score) [14]: 3.01 | glycan array binding signal (z-score) [15]: -0.669 | glycan array binding signal (z-score) [16]: 1.57 | glycan array binding signal (z-score) (Fuc(a1-2)Gal6S(b1-4)Glc): 0.894 | glycan array binding signal (z-score) [17]: -0.84 | glycan array binding signal (z-score) [18]: -0.241 | glycan array binding signal (z-score) (Fuc(a1-2)[Gal(a1-3)]Gal): -0.251 | glycan array binding signal (z-score) [19]: 0.022 | glycan array binding signal (z-score) [20]: -0.497 | glycan array binding signal (z-score) [21]: 1.18 | glycan array binding signal (z-score) [22]: -0.689
